Binding data for five molecules are collected here from article doi:10.1101/2025.03.27.645694.

T1: Actin-related protein M1 (ARPM1), HA-tagged (mouse) (UniProt Q8BXF8)
T1 sequence: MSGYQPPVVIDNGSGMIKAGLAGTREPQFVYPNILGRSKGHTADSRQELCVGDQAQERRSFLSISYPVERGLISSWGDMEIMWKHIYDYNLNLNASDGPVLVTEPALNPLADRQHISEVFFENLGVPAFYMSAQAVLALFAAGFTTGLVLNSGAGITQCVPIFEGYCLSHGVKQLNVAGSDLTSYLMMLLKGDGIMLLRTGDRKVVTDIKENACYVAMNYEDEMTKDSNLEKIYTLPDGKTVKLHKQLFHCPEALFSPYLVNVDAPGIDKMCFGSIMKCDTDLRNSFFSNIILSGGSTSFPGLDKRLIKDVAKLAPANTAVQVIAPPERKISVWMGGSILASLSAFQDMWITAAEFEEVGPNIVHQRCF

B1: Zona pellucida binding protein (ZPBP), Myc-tagged (protein, UniProt Q62522 45-350)
chain: HLARLPRSIHLTQDSLKIVGSTHFPVSVYVMLHQKSPHVLCVTQRLRNTELVDPSFQWHGPKGKLVSENTTAQVTSTGSLIFQSFEETMSGVYTCFLEYKPTVEESIKNLQLKYIVYAYREPRFYYQFTARYHAAPCNSIYNISFEKKLLQILSKLVLDLSCEISLIKSECHRVKMQRAGLQNELFFTFSVASIDTEKGSKPCTDHSCEASKRLSKAKNLIERFFIQQVEVLGKRAEPLPEIYYIEGTLQMVWVNRCFPGYGINVLKHPKCPECCVVCSPGSFNPRDGTHCLQCNNSLVYGAKTCM
B2: ACTRT1, Myc-tagged (protein, UniProt Q9D9J3 1-376)
chain: MLDPARLDNPAVIFDNGSGLCKVGISGEIEPRHVINSVVGHPKFNIPSARSNRKRYFVGEEAQCMYDGLYLHYPIERGLVTRWDDMEKLWKDLFEWELGVKPNEQPVFMTEPSLNPQETREKTTEIMFEKFNVPALYLCNHAVGALCASACITGLVLDSGDGVTCTVPVYEGYSLPHAITKLYVAGRDITEHLTRLLLAKGYTFPCILNKAVVDDIKEKLCTVSLGYKDTEKNCQQFLRKYTLPDGNTIQMSDHLCQVPEVLFTPDHLGIHDLGISKMVCNSIMNCDTDIQENLFAEIVLSGGTTMFPGLQDRLLKELEDLAFEGTPIKITASSDRCYSAWIGGSVMTSMTTFKQMWVTAEDFKEYGAFVVQRKCF
B3: ACTL7A, Myc-tagged (protein, UniProt Q9QY84 1-440)
chain: MSLDGVWAPQTANIGDGPAKKASDQASMQTQVLQTASLKDGPAKRAVWVRRDNAETEDPVKSTMSKDRPRLEVTKAVVVDLGTGFCKCGFAGLPKPTHKISTTVGKPYMETAKTGDNRKETFVGHELFNPDIHLKLVNPLRHGIIVDWDTVQDIWEYLFRQEMKIAPEEHAVLVSDPPLSPHTNREKYAEMLFETFNTPAMHIAYQSRLSMYSYGRTSGLVVEVGHGVSYVVPIYEGYPLPSITGRLDYAGSDLTTYLMNLMNNSGKHFSEDHLGIVEDIKTRCCFVALDPIEEKKIPAPEHEIHYTLPDGKEIRLGQERFLCSEMFFKPSLIKSMQLGLHTQTVSCLNKCDIALKRDLMGNILLCGGSTMLRGFPNRLQKELSSMCPNDTPQVNVLPERDTAVWTGGSILASLQGFQPLWVHRLEYEEHGPFFLYRRCF
B4: Profilin 3 (PFN3), Myc-tagged (protein, UniProt Q9DAD6 1-137)
chain: MSDWKGYISAVLRDQRIDDVAIVGHSDNRCVWASRPGGLLAAISPQEVGVLTGPDRHTFLQTGLSVAGRRCCVIRDYLLAEGDGVLDARTKGLDGRAICVGHTPRALLVLMGRRGVHGGILNKTVHDLIGGLREQCS
B5: SPEM2, Myc-tagged (protein, UniProt Q8C5U4 1-503)
chain: MENQLWQNTLRCCEQYQESPQDAENILFLLLGLIILVNISINVATAMWQGLQNAIDKMIFWMNQKTEVVQVTECPPKEPQPANVQDVHIHCILDPVQVKMAQPTQCSSSSSHYFCKRSNDRRSRRRYGYQQGNLQIHQSSQQQGCLSHQQRLRNRPLSRGYPPFRKQPQGHKMSQMRPMPFFDMEDRDSLPEGHSCPHAKQPRRGWGSLCKPVRLASNVGLWGRQGGILASLPLPSLYLSPELRRLPKRVEAKSELRLQGFGPHYSQSRIWGTVEAEQWASSPPPPRRLLPNPSWVTVGYSSFPSGGHIPYDARDQWRRGTEGCEPPPAFVPRNPREVQGYRDHNSQAHRQNFSSHTHSQPNHSPPQSMGHVGYSSRESHEVRRRAPDWIEVFPSRHPLTTSTSLTALGEASYQRAPPASSGLMIPHSSQRLAEVQISDPTPPPTTFVPLSRNPGGNATYQVYDSLELKRQVQENRGRASSLPPPSTSASRPSLHRSRTGKLN

These are yes or no findings as the source states them, for the method shown. Binding seen in cells or lysates may run through a third protein. Some results given as binding are weak or reduced against the parent protein; the word gives no strength. Tags and fused reporters may be left off the sequences shown.

The target in the test is T1, Actin-related protein M1 (ARPM1), HA-tagged (mouse). The test can be described thus: co-IP.
For the molecule B1, the binding result is “binds”. As for B2, the entry is “binds”. On to B3, for which the binding result is “binds”. Under B4 stands “binds”. Under B5 stands “no binding”.
